Test [1] has as its target T1, Unc-51 like autophagy activating kinase 1 (ULK1), endogenous (human (endogenous in LN229, Huh7 and HOK)) (UniProt O75385).
T1 sequence: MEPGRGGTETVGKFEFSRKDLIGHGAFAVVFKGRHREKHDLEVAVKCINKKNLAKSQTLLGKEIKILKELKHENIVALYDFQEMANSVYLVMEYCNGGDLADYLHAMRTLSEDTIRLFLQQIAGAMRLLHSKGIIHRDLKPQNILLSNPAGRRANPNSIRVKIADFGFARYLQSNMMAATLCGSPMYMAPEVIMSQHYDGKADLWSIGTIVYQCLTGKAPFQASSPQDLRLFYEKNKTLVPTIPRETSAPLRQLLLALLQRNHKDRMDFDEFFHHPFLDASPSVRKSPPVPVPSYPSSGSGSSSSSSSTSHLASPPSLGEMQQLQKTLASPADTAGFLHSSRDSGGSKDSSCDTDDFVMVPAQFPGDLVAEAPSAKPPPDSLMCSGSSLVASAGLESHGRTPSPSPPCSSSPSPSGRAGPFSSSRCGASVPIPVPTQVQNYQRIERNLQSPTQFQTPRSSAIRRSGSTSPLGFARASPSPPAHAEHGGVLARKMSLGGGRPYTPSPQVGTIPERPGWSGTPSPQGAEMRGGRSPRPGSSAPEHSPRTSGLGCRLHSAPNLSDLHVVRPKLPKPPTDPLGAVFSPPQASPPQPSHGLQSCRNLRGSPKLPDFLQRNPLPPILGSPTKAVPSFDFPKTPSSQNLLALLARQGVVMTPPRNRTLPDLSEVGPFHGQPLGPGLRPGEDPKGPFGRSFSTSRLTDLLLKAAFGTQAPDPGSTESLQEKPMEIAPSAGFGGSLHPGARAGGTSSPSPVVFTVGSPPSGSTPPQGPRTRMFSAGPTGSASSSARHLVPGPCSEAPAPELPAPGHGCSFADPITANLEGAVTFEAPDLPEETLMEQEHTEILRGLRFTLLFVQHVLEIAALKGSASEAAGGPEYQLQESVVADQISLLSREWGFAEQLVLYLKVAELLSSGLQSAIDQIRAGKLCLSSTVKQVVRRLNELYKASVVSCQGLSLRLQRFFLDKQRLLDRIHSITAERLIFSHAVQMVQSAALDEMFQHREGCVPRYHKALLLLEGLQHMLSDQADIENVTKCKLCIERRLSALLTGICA
The experiment in a line: co-IP; immunoprecipitation with an anti-ULK1 antibody from lysates of LN229, Huh7 or HOK cells cultured in normoxia; overnight at 4 °C, protein A or G agarose, washed 3 times with lysis buffer (0.1% SDS, 1% Triton X-100, 150 mM NaCl); immunoblot.

Protein sequences, listed by entry. Tags and fused reporters are not part of them.
UniProt O14744: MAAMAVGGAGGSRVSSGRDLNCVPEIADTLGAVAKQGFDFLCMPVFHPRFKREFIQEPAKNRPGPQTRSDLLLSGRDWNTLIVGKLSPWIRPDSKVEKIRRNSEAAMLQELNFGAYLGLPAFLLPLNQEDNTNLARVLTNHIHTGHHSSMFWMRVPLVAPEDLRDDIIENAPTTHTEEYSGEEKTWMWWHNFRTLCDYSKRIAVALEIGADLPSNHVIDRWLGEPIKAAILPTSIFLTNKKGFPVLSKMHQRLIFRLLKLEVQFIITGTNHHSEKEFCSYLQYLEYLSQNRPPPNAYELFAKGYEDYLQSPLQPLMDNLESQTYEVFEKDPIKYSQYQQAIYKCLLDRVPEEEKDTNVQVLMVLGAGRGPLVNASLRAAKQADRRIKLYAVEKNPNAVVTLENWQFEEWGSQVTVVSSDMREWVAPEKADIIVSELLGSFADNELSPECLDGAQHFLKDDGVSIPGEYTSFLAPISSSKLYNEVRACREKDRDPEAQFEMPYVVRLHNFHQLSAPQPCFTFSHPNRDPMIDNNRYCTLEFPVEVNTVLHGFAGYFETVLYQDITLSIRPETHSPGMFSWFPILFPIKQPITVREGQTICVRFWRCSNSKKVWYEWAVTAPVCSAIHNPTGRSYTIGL

Test [2] deals with protein arginine methyltransferase 5 (PRMT5), endogenous (human (endogenous in LN229, Huh7 and HOK)) (UniProt O14744). Kind of test: co-IP; immunoprecipitation with an anti-PRMT5 antibody from lysates of LN229, Huh7 or HOK cells, normoxia or 1% oxygen for 12 h; overnight at 4 °C, protein A or G agarose, washed 3 times with lysis buffer (0.1% SDS, 1% Triton X-100, 150 mM NaCl); immunoblot.

Results are given in words; binding and its absence hold for the method and conditions named. Binding seen in cells or lysates may run through a third protein.

B1: KDM4E, endogenous (enzyme, UniProt B2RXH2 1-506)
chain: MKSVHSSPQNTSHTIMTFYPTMEEFADFNTYVAYMESQGAHQAGLAKVIPPKEWKARQMYDDIEDILIATPLQQVTSGQGGVFTQYHKKKKAMRVGQYRRLANSKKYQTPPHQNFADLEQRYWKSHPGNPPIYGADISGSLFEESTKQWNLGHLGTILDLLEQECGVVIEGVNTPYLYFGMWKTTFAWHTEDMDLYSINYLHFGEPKTWYVVPPEHGQHLERLARELFPDISRGCEAFLRHKVALISPTVLKENGIPFNCMTQEAGEFMVTFPYGYHAGFNHGFNCAEAINFATPRWIDYGKMASQCSCGESTVTFSMDPFVRIVQPESYELWKHRQDLAIVEHTEPRVAESQELSNWRDDIVLRRAALGLRLLPNLTAQCPTQPVSSGHCYNPKGCGTDAVPGSAFQSSAYHTQTQSLTLGMSARVLLPSTGSWGSGRGRGRGQGQGRGCSRGRGHGCCTRELGTEEPTVQPASKRRLLMGTRSRAQGHRPQLPLANDLMTNLSL
Take B1: in test [1], the binding result is given as “no binding”.

B2: ULK2, endogenous (protein, UniProt Q8IYT8 1-1036)
chain: MEVVGDFEYSKRDLVGHGAFAVVFRGRHRQKTDWEVAIKSINKKNLSKSQILLGKEIKILKELQHENIVALYDVQELPNSVFLVMEYCNGGDLADYLQAKGTLSEDTIRVFLHQIAAAMRILHSKGIIHRDLKPQNILLSYANRRKSSVSGIRIKIADFGFARYLHSNMMAATLCGSPMYMAPEVIMSQHYDAKADLWSIGTVIYQCLVGKPPFQANSPQDLRMFYEKNRSLMPSIPRETSPYLANLLLGLLQRNQKDRMDFEAFFSHPFLEQGPVKKSCPVPVPMYSGSVSGSSCGSSPSCRFASPPSLPDMQHIQEENLSSPPLGPPNYLQVSKDSASTSSKNSSCDTDDFVLVPHNISSDHSCDMPVGTAGRRASNEFLVCGGQCQPTVSPHSETAPIPVPTQIRNYQRIEQNLTSTASSGTNVHGSPRSAVVRRSNTSPMGFLRPGSCSPVPADTAQTVGRRLSTGSSRPYSPSPLVGTIPEQFSQCCCGHPQGHDSRSRNSSGSPVPQAQSPQSLLSGARLQSAPTLTDIYQNKQKLRKQHSDPVCPSHTGAGYSYSPQPSRPGSLGTSPTKHLGSSPRSSDWFFKTPLPTIIGSPTKTTAPFKIPKTQASSNLLALVTRHGPAEEQSKDGNEPRECAHCLLVQGSERQRAEQQSKAVFGRSVSTGKLSDQQGKTPICRHQGSTDSLNTERPMDIAPAGACGGVLAPPAGTAASSKAVLFTVGSPPHSAAAPTCTHMFLRTRTTSVGPSNSGGSLCAMSGRVCVGSPPGPGFGSSPPGAEAAPSLRYVPYGASPPSLEGLITFEAPELPEETLMEREHTDTLRHLNVMLMFTECVLDLTAMRGGNPELCTSAVSLYQIQESVVVDQISQLSKDWGRVEQLVLYMKAAQLLAASLHLAKAQIKSGKLSPSTAVKQVVKNLNERYKFCITMCKKLTEKLNRFFSDKQRFIDEINSVTAEKLIYNCAVEMVQSAALDEMFQQTEDIVYRYHKAALLLEGLSRILQDPADIENVHKYKCSIERRLSALCHSTATV
Turning to B2, the binding result in test [2] is “no binding”.

Source of the values: article PMC8897422.
